Data from paper PMC9106302.
No constants are given. Whether binding was seen depends on the method and setting. In cells and extracts the contact can be indirect. These calls come from enrichment with a bait or labelling near it, and not all partners need be listed. Sequences can lack the tags named with a protein. Each block holds one molecule with its values, some of them ahead of it.

How the values were obtained:
Assay in all cases: affinity purification with mass spectrometry; purified GFP-3C-bait-3C-His6 immobilised on GFP binder beads, incubated with 6 mg Drosophila embryo nuclear extract in IP buffer (50 mM tris-Cl pH 7.5, 150 mM potassium acetate, 2 mM MgCl2, 10% glycerol, 0.1 mM DTT, 0.2% IGEPAL), 3 hours at 4°C; eluted with 3C protease; enrichment over a GFP-tagged Xenopus Nse I control bait; biological duplicates; only the target purified
[1] = target: T1, GFP-tagged CTCF[1-293] (N terminus) (GFP-3C-bait-3C-His6) (D. melanogaster) (UniProt Q9VS55)
T1 sequence: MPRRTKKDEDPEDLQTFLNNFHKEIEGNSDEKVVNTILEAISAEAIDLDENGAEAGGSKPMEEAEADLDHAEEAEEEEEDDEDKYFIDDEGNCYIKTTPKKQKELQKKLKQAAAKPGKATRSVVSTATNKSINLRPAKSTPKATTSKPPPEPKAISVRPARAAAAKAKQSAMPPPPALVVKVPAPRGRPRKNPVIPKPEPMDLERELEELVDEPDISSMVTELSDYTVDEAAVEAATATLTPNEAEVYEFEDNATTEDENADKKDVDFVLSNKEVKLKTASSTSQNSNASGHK

[2] = target: T2, GFP-tagged full-length Cp190[1-1096] bait (GFP-3C-Cp190-3C-His6) (D. melanogaster) (UniProt Q24478)
T2 sequence: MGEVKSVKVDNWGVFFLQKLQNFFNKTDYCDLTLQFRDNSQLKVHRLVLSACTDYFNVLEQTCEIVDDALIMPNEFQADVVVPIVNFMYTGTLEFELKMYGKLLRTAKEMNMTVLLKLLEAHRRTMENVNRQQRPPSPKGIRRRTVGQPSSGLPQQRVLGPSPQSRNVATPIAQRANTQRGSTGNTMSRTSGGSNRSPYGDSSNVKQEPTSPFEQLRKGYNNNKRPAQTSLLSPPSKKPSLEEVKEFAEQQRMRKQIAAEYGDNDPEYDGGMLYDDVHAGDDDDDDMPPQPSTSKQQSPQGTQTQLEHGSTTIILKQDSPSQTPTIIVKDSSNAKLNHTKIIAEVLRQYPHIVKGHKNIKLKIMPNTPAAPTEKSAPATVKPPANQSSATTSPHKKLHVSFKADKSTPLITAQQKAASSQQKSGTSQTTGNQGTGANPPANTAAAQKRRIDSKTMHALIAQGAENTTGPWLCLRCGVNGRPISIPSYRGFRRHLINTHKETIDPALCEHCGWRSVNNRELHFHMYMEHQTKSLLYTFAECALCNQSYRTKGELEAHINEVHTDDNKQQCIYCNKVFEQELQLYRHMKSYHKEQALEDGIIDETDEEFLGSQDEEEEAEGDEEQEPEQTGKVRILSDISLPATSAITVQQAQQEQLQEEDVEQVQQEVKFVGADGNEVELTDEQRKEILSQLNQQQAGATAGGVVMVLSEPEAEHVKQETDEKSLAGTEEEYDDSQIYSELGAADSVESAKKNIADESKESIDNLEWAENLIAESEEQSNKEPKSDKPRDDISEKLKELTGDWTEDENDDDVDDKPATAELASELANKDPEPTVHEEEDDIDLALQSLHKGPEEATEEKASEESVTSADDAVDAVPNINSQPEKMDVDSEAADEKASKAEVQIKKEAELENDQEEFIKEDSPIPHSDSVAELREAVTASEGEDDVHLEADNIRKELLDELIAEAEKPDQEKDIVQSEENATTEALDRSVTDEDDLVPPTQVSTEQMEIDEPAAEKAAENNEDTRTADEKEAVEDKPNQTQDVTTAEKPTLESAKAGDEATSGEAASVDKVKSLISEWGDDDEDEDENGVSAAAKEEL

[3] = target: T3, GFP-tagged Su(Hw)[1-219] (N terminus) (GFP-3C-bait-3C-His6) (D. melanogaster) (UniProt P08970)
T3 sequence: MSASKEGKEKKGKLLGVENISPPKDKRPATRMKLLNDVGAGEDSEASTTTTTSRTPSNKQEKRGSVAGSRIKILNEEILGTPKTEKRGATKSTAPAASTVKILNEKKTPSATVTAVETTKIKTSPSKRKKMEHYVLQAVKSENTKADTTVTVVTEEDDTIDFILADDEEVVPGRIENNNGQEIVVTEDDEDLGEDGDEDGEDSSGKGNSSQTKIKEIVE

Molecule: SA (cohesin subunit), endogenous
- binding [1]: binds
- binding [2]: binds

B1: Ibf2, endogenous (protein, UniProt Q9VHG6 1-195)
chain: MSQAKKAKRPSGLSKDETWKKLGFLPAFKGGKDGEPKKYRALCTHCRKCQSNTSIDRLIIHRKSCLKFREDLTAEFGIKVEATDAAPAEQSSSGSTIDFTSNILLDKLIDEDDSSARNQESNLVSYLTDLDQLVIPSSDANRLQKDLIKAETEYLVVKSEYFTKMNEISELKRTVTLLEAKKTQLEIAKLRAECE
- binding [2]: binds

B3: CTCF, endogenous (protein, UniProt Q9VS55 1-818)
chain: MPRRTKKDEDPEDLQTFLNNFHKEIEGNSDEKVVNTILEAISAEAIDLDENGAEAGGSKPMEEAEADLDHAEEAEEEEEDDEDKYFIDDEGNCYIKTTPKKQKELQKKLKQAAAKPGKATRSVVSTATNKSINLRPAKSTPKATTSKPPPEPKAISVRPARAAAAKAKQSAMPPPPALVVKVPAPRGRPRKNPVIPKPEPMDLERELEELVDEPDISSMVTELSDYTVDEAAVEAATATLTPNEAEVYEFEDNATTEDENADKKDVDFVLSNKEVKLKTASSTSQNSNASGHKYSCPHCPYTASKKFLITRHSRSHDVEPSFKCSICERSFRSNVGLQNHINTHMGNKPHKCKLCESAFTTSGELVRHTRYKHTKEKPHKCTECTYASVELTKLRRHMTCHTGERPYQCPHCTYASQDMFKLKRHMVIHTGEKKYQCDICKSRFTQSNSLKAHKLIHSVVDKPVFQCNYCPTTCGRKADLRVHIKHMHTSDVPMTCRRCGQQLPDRYQYKLHVKSHEGEKCYSCKLCSYASVTQRHLASHMLIHLDEKPFHCDQCPQAFRQRQLLRRHMNLVHNEEYQPPEPREKLHKCPSCPREFTHKGNLMRHMETHDDSANAREKRRRLKLGRNVRLQKDGTVITLIKDQYVDMDRDQEENEEDDNPESYDLAEIEPENSEAEDADDDVETIVSDPIRQRIKPAPIIINKQARLAASEKQPMIINQRLRSQRGTKTFHIKEEPDNSDFTVEWQGDDGEVMVVELVNGDEEVLVKHEPSANSKISAKNCFGFEDDDDYEEYGDGENEVDGASQEFLQLMDMIEQDS
- binding [2]: binds

B4: Ibf1 (insulator binding factor 1), endogenous (protein, UniProt Q9VHG5 1-242)
chain: MPRKKSEDFYRTHGFTANLENGKYSATCHFCEKVLQNTALSRLSLHRQTCDARRSRSAVVYTSADEKDHDEAPRIKIQKISGDDDGGLDNANEGKEIIVKIQQILDDADEAEAPKEQPRVKREIRKRKLTKTEESGEQNLEFEISNVEIKNPEYSEYLDESKEHYILQQNPDDLANGSATIIEARPRNGLAALRAEKARAEISQFQSKTKFLKTETDNLKVERTLTLLKIQKLRLEIDALRD
- binding [2]: binds

Now from value to molecule:

- binding [2]: binds
Molecule: SMC1 (cohesin subunit), endogenous

- binding [2]: binds
Molecule: SMC3 (cohesin subunit), endogenous

- binding [1]: binds
- binding [2]: binds
Molecule: vtd (cohesin subunit), endogenous

- binding [3]: binds
- binding [2]: binds
B2: Su(Hw) (suppressor of Hairy-Wing), endogenous (protein, UniProt P08970 1-941)
chain: MSASKEGKEKKGKLLGVENISPPKDKRPATRMKLLNDVGAGEDSEASTTTTTSRTPSNKQEKRGSVAGSRIKILNEEILGTPKTEKRGATKSTAPAASTVKILNEKKTPSATVTAVETTKIKTSPSKRKKMEHYVLQAVKSENTKADTTVTVVTEEDDTIDFILADDEEVVPGRIENNNGQEIVVTEDDEDLGEDGDEDGEDSSGKGNSSQTKIKEIVEHVCGKCYKTFRRVQSLKKHLEFCRYDSGYHLRKADMLKNLEKIEKDAVVMEKKDICFCCSESYDTFHLGHINCPDCPKSFKTQTSYERHIFITHSEFSDFPCSICNANLRSEALLALHEEQHKSRGKPYACKICGKDFTRSYHLKRHQKYSSCSSNETDTMSCKVCDRVFYRLDNLRSHLKQHLGTQVVKKPEYMCHTCKNCFYSLSTLNIHIRTHTGEKPFDCDLCDKKFSALVALKKHRRYHTGEKPYSCTVCNQAFAVKEVLNRHMKRHTGERPHKCDECGKSFIQATQLRTHSKTHIRPFPCEQCDEKFKTEKQLERHVKTHSRTKRPVFSCAECKRNFRTPALLKEHMDEGKHSPKQQRSSMRSAVKIMERTDCAICDKNFDSSDTLRRHIRTVHECDPDDIFGVEPHPSKRAKKDIESEEVVPVALNTSAGSLISSQTDGNGVVVREFLVDEGDGAAQTITLENETYTILPLDGAIEGEQLTDEAGVKPEAKKEEAQVSPVVKKEQRKSLAASLAAAIADNLEESCSEDDFSGEILTEEDIKLKENVGKLIDMLVDPPILKKYGWPNAPEETVLCKVIENCGHDLTKGGENYAELDYGSRMREYCKLLFTVVIHNDSIKSLLNNFPIDDVIEYVLGDEDQDEGGLDKDNESHSGDEEAVSVTGETKTNEIREKPEKKEVSAKSEKKEIVGKAVDKDNSEEVVRENKKKPVGEQEKA

- binding [2]: binds
B5: pita, endogenous (protein, UniProt Q95RQ8 1-683)
chain: MAAKLEVREAMLTEKRVCRFCLTEQKLASIFEENPRVKTTANLPLQIMAITAIEVYAGDGMPGHICLECRLLFEHCYRFKQMCKRAETLLRQYPLTGNWPSPLEKPRAPMTMVASKKLLVVPAKTAEPSETPKKLLNTMAKSSSQVIIEDVQVLESAMVTPRTVAGSSPVPRRSHAYELKVDNNQELSMDDVQSMLEDMASELEKEFPDIPQKASPVKPKVLNKSSIRILNKGPAAPVEPRLATPKVKRDDSGNVAIVTEVLDSDLPLDDQDDPTKNAEKVATDVFPCPDCERSFPLQQLLEIHRLNHTRSRSFQCLLCEKSFFSKYDLAKHNFVHTGERPFKCAICSKAFTRKALLHRHERTHTDVPKFICVYCEKPFLSRQEMEKHAERHQKKRPFQCGVCTKSFAFKQGLERHETVHSTNLPFPCQHCERSFSTASKLARHLVAHAGKRAYPCKYCHKSYMLSHHLSRHLRTHTQTSDASFVCSECKVSYSNYNDLLDHALIHATASLKCPMCRKQIEDIDSVESHMDQHKQSERHACEFCDHIFLTQKCLQRHIEDDHVVEMEPYQNEFEDDGEGEGGVDEKEEHLDDFEDMDNVKQEEFVTEYLEDDALYEDHLDDSDESFTPPPPKQRKTNPPKDAQQSVRQTRSRDAQRITQKTGKNEGKPHHKLERNLKNRRSAK

- binding [2]: binds
B6: ZIPIC (zinc-finger protein interacting with CP190), endogenous (protein, UniProt Q9VAB8 1-457)
chain: MNCCICQFSVRVPKDIHTDTVGHPPVLISELVLQCTRGTNYVLTEESSTICKKCCEKLARYHKSIQIARKLRGEILELIHSPYMSKDHKQTSYKEDDLDRETTISKFDGNIEEAQQQDEEEQELESVGTTVTLVGPAGIVEEVAEEEHTFIIKQSEEEDEFHSVDLELDIDNEIIINEEEAHEVEEVAHEIEEVAHEIEEEDLLPHDKQEAQEEDFFKEDTMSDFDEHLDGAIEYIISDGEDQEQDNESSGEYTVNIQCPSCPEKFSSRRAYNVHTKREHFPGYVCDQCGKTLQSYSGFIGHLQNHEPVKQFACPVCPERFSRKFRLKHHMAWHSGETPYQCDVCSKRFVHKVALYKHKMIHDSETKRLECQVCGFKTRTKAHLERHMRSHTGDKPFACPVCNKRFSQMYNMKAHLREHESPGTNRHRRFHCSKCTHTFINEQNYDAHVQRDDCTPV
